# The other results are listed elsewhere or left out. Most entries show no effect beyond the scatter of the controls.
# Chains of the proteins cited; added tags and fusions are not shown. Lines headed by an entry give the natural chain unless they say otherwise; changes in a name come on top.
# UniProt Q571G4: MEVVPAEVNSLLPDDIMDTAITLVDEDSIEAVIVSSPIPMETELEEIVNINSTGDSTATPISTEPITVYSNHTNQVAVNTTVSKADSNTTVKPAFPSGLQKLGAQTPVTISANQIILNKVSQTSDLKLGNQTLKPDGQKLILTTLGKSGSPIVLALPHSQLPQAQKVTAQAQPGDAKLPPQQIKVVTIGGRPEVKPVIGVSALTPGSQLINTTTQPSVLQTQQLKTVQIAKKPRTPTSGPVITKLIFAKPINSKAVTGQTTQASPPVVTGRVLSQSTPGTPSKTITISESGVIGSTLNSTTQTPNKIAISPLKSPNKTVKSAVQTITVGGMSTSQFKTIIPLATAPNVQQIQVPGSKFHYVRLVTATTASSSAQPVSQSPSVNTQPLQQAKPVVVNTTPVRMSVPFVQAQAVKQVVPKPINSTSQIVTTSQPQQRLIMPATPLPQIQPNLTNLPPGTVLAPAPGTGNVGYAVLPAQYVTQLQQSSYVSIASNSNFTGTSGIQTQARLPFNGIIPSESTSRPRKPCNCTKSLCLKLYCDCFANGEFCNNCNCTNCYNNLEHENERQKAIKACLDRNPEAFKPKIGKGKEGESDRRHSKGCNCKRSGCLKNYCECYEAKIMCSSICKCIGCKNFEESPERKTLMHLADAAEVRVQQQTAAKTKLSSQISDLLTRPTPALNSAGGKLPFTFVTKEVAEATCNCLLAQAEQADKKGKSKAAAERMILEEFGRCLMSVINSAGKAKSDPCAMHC
# UniProt Q501J6: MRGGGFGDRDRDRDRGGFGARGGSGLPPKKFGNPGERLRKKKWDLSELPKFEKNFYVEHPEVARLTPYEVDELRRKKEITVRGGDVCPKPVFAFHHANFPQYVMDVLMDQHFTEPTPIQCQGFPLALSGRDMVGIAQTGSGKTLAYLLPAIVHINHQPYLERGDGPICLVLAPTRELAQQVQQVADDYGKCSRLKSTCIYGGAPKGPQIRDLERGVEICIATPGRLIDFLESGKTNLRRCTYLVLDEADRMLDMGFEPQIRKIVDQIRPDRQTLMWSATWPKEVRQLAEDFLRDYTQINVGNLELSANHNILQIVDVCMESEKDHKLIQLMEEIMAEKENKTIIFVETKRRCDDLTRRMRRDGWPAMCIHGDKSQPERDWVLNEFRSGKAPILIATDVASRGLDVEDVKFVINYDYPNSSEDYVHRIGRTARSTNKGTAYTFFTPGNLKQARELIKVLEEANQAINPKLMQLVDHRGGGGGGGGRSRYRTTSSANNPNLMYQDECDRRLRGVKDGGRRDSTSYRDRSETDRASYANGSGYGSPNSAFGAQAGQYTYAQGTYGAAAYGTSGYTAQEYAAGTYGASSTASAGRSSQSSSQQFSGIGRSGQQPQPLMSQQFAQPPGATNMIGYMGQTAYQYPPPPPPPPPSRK
# UniProt Q3UFF7: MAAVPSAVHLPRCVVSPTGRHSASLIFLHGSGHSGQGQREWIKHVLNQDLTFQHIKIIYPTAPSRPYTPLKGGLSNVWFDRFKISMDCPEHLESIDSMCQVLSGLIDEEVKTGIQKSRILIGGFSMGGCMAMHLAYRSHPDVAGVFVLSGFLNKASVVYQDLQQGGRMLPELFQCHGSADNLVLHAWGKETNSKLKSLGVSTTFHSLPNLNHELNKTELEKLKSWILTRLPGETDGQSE
# UniProt Q3US17: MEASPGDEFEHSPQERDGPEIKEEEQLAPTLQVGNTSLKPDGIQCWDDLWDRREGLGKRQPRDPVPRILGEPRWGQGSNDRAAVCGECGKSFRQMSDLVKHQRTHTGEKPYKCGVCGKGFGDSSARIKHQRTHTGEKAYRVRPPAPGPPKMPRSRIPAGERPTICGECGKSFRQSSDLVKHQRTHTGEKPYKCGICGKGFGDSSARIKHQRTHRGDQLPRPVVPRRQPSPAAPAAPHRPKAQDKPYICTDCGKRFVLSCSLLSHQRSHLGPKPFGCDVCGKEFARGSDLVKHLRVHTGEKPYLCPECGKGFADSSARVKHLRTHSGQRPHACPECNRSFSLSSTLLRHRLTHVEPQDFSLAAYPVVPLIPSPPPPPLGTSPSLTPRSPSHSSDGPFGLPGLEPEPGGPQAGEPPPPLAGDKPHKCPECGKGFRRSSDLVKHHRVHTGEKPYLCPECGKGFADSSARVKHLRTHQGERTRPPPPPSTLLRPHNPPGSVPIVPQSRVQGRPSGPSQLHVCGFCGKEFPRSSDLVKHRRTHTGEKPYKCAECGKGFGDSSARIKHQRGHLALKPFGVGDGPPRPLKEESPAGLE
# UniProt Q497H0: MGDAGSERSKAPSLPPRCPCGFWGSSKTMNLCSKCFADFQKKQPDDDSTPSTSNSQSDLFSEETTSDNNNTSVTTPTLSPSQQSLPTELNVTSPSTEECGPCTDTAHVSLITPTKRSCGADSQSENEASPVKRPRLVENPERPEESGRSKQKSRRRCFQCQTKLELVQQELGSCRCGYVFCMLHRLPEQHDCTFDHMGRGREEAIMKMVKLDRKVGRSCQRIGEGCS
# UniProt Q3UTQ7: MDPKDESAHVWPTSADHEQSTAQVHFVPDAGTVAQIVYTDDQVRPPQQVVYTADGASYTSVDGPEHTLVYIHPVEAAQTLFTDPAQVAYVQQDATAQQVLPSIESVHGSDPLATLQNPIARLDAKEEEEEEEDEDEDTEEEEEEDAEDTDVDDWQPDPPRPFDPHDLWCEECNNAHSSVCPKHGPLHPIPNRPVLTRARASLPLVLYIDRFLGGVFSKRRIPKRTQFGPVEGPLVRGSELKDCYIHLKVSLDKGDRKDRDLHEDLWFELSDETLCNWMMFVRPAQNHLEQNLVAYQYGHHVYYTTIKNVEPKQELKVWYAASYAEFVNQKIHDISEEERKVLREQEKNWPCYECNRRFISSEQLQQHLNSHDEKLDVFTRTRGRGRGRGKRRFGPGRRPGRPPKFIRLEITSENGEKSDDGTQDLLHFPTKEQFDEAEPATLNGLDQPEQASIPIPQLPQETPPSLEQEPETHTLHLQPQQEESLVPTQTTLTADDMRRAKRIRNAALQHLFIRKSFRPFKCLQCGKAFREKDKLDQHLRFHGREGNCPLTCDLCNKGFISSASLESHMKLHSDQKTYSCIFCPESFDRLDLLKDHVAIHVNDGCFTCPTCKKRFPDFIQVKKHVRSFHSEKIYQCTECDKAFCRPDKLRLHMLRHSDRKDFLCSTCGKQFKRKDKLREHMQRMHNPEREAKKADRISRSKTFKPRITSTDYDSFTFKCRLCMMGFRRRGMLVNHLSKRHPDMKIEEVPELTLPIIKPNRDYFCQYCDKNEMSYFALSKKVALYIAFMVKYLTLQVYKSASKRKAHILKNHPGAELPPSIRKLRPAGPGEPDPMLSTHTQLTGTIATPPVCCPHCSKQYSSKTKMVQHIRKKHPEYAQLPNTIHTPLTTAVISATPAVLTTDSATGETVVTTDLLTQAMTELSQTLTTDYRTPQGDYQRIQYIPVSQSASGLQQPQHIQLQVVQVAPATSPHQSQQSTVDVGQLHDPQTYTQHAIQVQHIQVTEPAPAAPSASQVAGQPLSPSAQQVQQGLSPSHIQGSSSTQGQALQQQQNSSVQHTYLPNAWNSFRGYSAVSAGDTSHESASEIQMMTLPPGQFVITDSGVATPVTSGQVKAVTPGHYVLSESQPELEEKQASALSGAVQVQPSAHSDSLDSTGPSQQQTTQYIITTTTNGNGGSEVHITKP
# UniProt Q3UM29: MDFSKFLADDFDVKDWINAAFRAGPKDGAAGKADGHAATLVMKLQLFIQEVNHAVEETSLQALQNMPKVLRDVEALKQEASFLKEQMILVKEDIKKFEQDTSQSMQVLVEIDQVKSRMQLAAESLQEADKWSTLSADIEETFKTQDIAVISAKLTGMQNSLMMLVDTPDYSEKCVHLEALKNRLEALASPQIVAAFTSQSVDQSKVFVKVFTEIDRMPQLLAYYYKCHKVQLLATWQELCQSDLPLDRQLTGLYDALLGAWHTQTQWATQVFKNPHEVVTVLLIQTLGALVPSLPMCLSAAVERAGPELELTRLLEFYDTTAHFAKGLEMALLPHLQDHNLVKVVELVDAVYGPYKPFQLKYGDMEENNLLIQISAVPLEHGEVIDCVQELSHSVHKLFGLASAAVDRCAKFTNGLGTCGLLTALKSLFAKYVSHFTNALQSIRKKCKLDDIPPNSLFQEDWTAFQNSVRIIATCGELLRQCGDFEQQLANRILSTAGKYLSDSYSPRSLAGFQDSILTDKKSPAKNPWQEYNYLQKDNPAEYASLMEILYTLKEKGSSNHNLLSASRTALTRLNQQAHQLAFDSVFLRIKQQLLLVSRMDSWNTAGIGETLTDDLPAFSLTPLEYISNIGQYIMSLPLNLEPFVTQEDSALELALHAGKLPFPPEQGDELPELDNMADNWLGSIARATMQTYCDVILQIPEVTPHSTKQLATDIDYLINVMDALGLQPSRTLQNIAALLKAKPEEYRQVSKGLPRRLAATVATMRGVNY
# Compound: CN[C@@H]1C[C@H]2O[C@@](C)([C@@H]1OC)n1c3ccccc3c3c4c(c5c6ccccc6n2c5c31)C(=O)NC4 [staurosporine]
# Experiment: log2 fold change of tryptic peptide abundance, ligand vs vehicle (limited proteolysis) (log2 ratio); higher = more trypsin-susceptible (destabilized)
# Settings: ligand concentration: 20 uM; sample: mouse liver crude lysate; replicate design: treated separately
row,Target,log2 fold change
1,"UniProt Q571G4 (peptide sequence: ADSNTTVKPAFPSGLQK, peptide start residue: 85)",0.518
2,"UniProt Q501J6 (peptide sequence: LMQLVDHR, peptide start residue: 469)",0.164
3,"UniProt Q3UFF7 (peptide sequence: IIYPTAPSRPYTPLK, peptide start residue: 57)",-0.474
4,"UniProt Q3US17 (peptide sequence: RQPSPAAPAAPHRPK, peptide start residue: 226)",0.41
5,"UniProt Q497H0 (peptide sequence: LVENPERPEESGR, peptide start residue: 136)",0.233
6,"UniProt Q3UTQ7 (peptide sequence: GMLVNHLSK, peptide start residue: 730)",0.134
7,"UniProt Q3UM29 (peptide sequence: GLEMALLPHLQDHNLVK, peptide start residue: 327)",-0.251
